PubChem BioAssay AID1259308 – NCATS, 2017
Here is one part, drawn at random, of about 59,000 deposited reagents. Of all reagents, about 1,510 (2.6%) are marked active. 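Calls use total luciferase alone and ignore viability, so some active siRNAs may act by altering cell number.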 Reagents against one gene are numbered here. Not all columns of the deposit are shown. No sequences are given here.

Purpose: 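Candidate targets for better recombinant protein yield in mammalian cells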 (primary screen)
Cell system: human HEK293 embryonic kidney cells stably expressing firefly luciferase (HEK-CMV-Luc2-Hygro)
Reagent: single siRNA against human genes, 0.8 pmol siRNA per well
Time to read-out: 72 h
Measurement: 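Reporter luminescence and viable-cell signal on separate replicate plates, given as percent of non-targeting control and median/MAD z-scores, plus per-cell luciferase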
Reading the numbers: total luciferase, z-score: higher = more reporter protein produced
Active means: 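Active when the median/MAD z-score for overall luciferase is greater than 3; a gene was taken forward for validation with new siRNAs if at least two of its three siRNAs passed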
Meaning of the calls: active = raised luciferase; inactive = no rise

CHID1 (chitinase domain containing 1) #1
- total luciferase, z-score: 0.476
- call: inactive

CHID1 (chitinase domain containing 1) #2
- total luciferase, z-score: -0.151
- call: inactive

CHID1 (chitinase domain containing 1) #3
- total luciferase, z-score: 1.83
- call: inactive

RPS11P5 (ribosomal protein S11 pseudogene 5) #1
- total luciferase, z-score: -2.4
- call: inactive

RPS11P5 (ribosomal protein S11 pseudogene 5) #2
- total luciferase, z-score: -1.53
- call: inactive

RPS11P5 (ribosomal protein S11 pseudogene 5) #3
- total luciferase, z-score: -3.14
- call: inactive

Taken from above:
Value for RPS11P5 (ribosomal protein S11 pseudogene 5) #3 under “call”: inactive
Value for CHID1 (chitinase domain containing 1) #2 in “total luciferase, z-score”: -0.151

Additional records:
NDUFAF1 (NADH:ubiquinone oxidoreductase complex assembly factor 1) #1
- total luciferase, z-score: 3.37
- call: active

NDUFAF1 (NADH:ubiquinone oxidoreductase complex assembly factor 1) #2
- total luciferase, z-score: -1.22
- call: inactive

NDUFAF1 (NADH:ubiquinone oxidoreductase complex assembly factor 1) #3
- total luciferase, z-score: 0.0248
- call: inactive

TBX21 (T-box transcription factor 21) #1
- total luciferase, z-score: -0.127
- call: inactive

TBX21 (T-box transcription factor 21) #2
- total luciferase, z-score: 0.11
- call: inactive

TBX21 (T-box transcription factor 21) #3
- total luciferase, z-score: -0.412
- call: inactive
